Record: PubChem BioAssay AID652243 (Drosophila RNAi Screening Center, 2013)
The deposit covers about 24,000 reagents; below is an unselected part of those with a known target gene and a result. Over the whole deposit, 246 (1%) were called active. 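Plates not normalised; calls are printed but the firefly/Renilla ratio behind them is not deposited; fold cut for lowering reported inconsistently.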 Raw values vary from plate to plate and are shown uncorrected. Not given: the amount of reagent.

- Assay: 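Fly genes required for human androgen receptor driven transcription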 (primary screen)
- System: Drosophila S2R+ cells
- Reagents: long dsRNA against Drosophila genes
- Time to read-out: 72 h (48 h, then 24 h hormone)
- Conditions: synthetic androgen R1881 at 10 nM for 24 h
- Measurement: 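Firefly light from an androgen-responsive reporter and Renilla control light per well, raw and unnormalised, for each of two replicates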
- Scale: firefly reporter light: higher = more light from androgen-responsive reporter; Renilla control light: higher = more constitutive control signal (cell number, transfection)
- Call rule: 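Across duplicate plates, a knock-down whose log firefly/Renilla ratio shifted a set fold down or up from the GFP/LacZ control mean was a hit; the downward cut appears as both 1.5 and 3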
- Meaning of the calls: active = hit: reporter lowered or raised; inactive = no hit

Ggamma1 [SID104187227]
- firefly reporter light, replicate 1: 1.11e6
- firefly reporter light, replicate 2: 5.77e5
- Renilla control light, replicate 1: 3.31e6
- Renilla control light, replicate 2: 2.06e6
- Outcome: inactive

Srr [SID104196174]
- firefly reporter light, replicate 1: 1.06e5
- firefly reporter light, replicate 2: 1.34e5
- Renilla control light, replicate 1: 1.73e6
- Renilla control light, replicate 2: 2.37e6
- Outcome: inactive

Srr [SID104206029]
- firefly reporter light, replicate 1: 3.62e5
- firefly reporter light, replicate 2: 2.32e5
- Renilla control light, replicate 1: 6.25e5
- Renilla control light, replicate 2: 9.34e5
- Outcome: inactive

U4-U6-60K [SID104190416]
- firefly reporter light, replicate 1: 40890
- firefly reporter light, replicate 2: 60881
- Renilla control light, replicate 1: 4.40e5
- Renilla control light, replicate 2: 5.85e5
- Outcome: inactive

CG6938 [SID104190544]
- firefly reporter light, replicate 1: 1.38e5
- firefly reporter light, replicate 2: 1.08e5
- Renilla control light, replicate 1: 1.51e6
- Renilla control light, replicate 2: 1.37e6
- Outcome: inactive

CG6938 [SID104207165]
- firefly reporter light, replicate 1: 4.84e5
- firefly reporter light, replicate 2: 4.44e5
- Renilla control light, replicate 1: 1.28e6
- Renilla control light, replicate 2: 1.27e6
- Outcome: inactive

CG31342 [SID104195141]
- firefly reporter light, replicate 1: 18754
- firefly reporter light, replicate 2: 17741
- Renilla control light, replicate 1: 1.96e5
- Renilla control light, replicate 2: 1.73e5
- Outcome: inactive

CG31342 [SID104196038]
- firefly reporter light, replicate 1: 1.25e5
- firefly reporter light, replicate 2: 1.02e5
- Renilla control light, replicate 1: 1.92e6
- Renilla control light, replicate 2: 1.58e6
- Outcome: inactive

CG6770 [SID104182784]
- firefly reporter light, replicate 1: 2.71e5
- firefly reporter light, replicate 2: 1.84e5
- Renilla control light, replicate 1: 7.68e5
- Renilla control light, replicate 2: 6.45e5
- Outcome: inactive

CG6770 [SID104204958]
- firefly reporter light, replicate 1: 2.89e5
- firefly reporter light, replicate 2: 1.86e5
- Renilla control light, replicate 1: 5.80e5
- Renilla control light, replicate 2: 6.40e5
- Outcome: inactive

CG12951 [SID104194371]
- firefly reporter light, replicate 1: 78490
- firefly reporter light, replicate 2: 1.01e5
- Renilla control light, replicate 1: 2.58e6
- Renilla control light, replicate 2: 2.37e6
- Outcome: inactive

CG12951 [SID104204110]
- firefly reporter light, replicate 1: 1.07e6
- firefly reporter light, replicate 2: 1.02e6
- Renilla control light, replicate 1: 1.47e6
- Renilla control light, replicate 2: 1.30e6
- Outcome: inactive

r2d2 [SID104182806]
- firefly reporter light, replicate 1: 1.89e5
- firefly reporter light, replicate 2: 1.69e5
- Renilla control light, replicate 1: 1.84e6
- Renilla control light, replicate 2: 1.49e6
- Outcome: inactive

r2d2 [SID104208106]
- firefly reporter light, replicate 1: 2.29e5
- firefly reporter light, replicate 2: 2.26e5
- Renilla control light, replicate 1: 5.37e5
- Renilla control light, replicate 2: 5.37e5
- Outcome: inactive

BubR1 [SID104184630]
- firefly reporter light, replicate 1: 3.32e5
- firefly reporter light, replicate 2: 3.83e5
- Renilla control light, replicate 1: 1.72e6
- Renilla control light, replicate 2: 1.78e6
- Outcome: inactive

BubR1 [SID104214334]
- Outcome: inactive

BubR1 [SID104214335]
- Outcome: inactive

mim [SID104202402]
- firefly reporter light, replicate 1: 3.48e5
- firefly reporter light, replicate 2: 5.03e5
- Renilla control light, replicate 1: 1.30e6
- Renilla control light, replicate 2: 1.78e6
- Outcome: inactive

mim [SID104206228]
- firefly reporter light, replicate 1: 2.77e5
- firefly reporter light, replicate 2: 1.80e5
- Renilla control light, replicate 1: 5.17e5
- Renilla control light, replicate 2: 4.68e5
- Outcome: inactive

CG11523 [SID104191461]
- firefly reporter light, replicate 1: 63868
- firefly reporter light, replicate 2: 51170
- Renilla control light, replicate 1: 4.99e5
- Renilla control light, replicate 2: 4.03e5
- Outcome: inactive

CG11523 [SID104204973]
- firefly reporter light, replicate 1: 3.24e5
- firefly reporter light, replicate 2: 2.98e5
- Renilla control light, replicate 1: 3.80e5
- Renilla control light, replicate 2: 6.55e5
- Outcome: inactive

Already shown: 3 of the entries above.
BubR1 [SID104184630]
- firefly reporter light, replicate 1: 3.32e5
- firefly reporter light, replicate 2: 3.83e5
- Renilla control light, replicate 1: 1.72e6
- Renilla control light, replicate 2: 1.78e6
- Outcome: inactive

BubR1 [SID104214334]
- Outcome: inactive

BubR1 [SID104214335]
- Outcome: inactive
